The supplement of paper PMC7666118
The list shows a part of the results.

Amino acid sequences for entries named in this document (tags omitted). A change or cut given only in a name is not applied to a line headed by its entry.
UniProt O75330: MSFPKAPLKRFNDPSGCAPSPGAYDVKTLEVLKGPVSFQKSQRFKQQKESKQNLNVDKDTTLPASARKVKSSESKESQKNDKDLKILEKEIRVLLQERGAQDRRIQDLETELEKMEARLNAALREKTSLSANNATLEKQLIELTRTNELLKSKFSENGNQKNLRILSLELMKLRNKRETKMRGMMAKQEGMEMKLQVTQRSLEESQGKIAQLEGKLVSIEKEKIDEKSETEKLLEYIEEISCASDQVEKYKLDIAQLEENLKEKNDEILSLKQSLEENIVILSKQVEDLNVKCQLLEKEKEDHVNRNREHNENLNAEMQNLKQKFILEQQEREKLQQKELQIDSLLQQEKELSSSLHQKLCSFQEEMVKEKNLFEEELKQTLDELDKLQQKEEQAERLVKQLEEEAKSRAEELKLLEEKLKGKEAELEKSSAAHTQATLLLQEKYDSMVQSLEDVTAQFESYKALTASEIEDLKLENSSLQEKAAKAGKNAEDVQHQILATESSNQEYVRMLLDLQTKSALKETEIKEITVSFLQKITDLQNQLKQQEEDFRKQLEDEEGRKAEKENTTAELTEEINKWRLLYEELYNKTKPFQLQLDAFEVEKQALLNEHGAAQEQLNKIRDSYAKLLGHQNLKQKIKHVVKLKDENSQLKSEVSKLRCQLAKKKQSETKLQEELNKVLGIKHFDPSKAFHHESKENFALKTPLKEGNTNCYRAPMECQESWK
UniProt Q96JZ2: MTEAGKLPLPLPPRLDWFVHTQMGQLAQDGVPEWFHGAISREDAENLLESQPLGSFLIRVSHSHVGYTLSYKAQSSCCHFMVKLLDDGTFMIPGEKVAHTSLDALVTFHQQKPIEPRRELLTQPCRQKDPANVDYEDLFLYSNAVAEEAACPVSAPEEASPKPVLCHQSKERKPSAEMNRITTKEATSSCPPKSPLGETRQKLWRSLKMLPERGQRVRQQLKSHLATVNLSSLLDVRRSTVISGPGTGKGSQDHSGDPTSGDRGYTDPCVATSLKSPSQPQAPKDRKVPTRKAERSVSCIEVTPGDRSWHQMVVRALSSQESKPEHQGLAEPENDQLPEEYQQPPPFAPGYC
UniProt P17535: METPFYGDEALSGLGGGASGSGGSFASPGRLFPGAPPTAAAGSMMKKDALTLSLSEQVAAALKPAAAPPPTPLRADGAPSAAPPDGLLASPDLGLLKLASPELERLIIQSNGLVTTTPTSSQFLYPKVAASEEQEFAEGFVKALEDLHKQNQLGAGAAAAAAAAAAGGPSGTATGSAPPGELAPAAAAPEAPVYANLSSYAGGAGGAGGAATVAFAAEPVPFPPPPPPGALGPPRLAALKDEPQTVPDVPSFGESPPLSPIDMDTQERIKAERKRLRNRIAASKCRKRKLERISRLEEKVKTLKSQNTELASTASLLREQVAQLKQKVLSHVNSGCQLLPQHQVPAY
UniProt P04792, whole entry: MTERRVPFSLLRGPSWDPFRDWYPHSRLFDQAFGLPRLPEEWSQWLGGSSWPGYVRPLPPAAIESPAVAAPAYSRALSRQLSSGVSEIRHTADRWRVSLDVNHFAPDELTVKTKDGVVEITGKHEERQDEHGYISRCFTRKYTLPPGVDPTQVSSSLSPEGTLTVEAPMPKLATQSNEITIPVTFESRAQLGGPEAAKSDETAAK
UniProt P05412, whole entry: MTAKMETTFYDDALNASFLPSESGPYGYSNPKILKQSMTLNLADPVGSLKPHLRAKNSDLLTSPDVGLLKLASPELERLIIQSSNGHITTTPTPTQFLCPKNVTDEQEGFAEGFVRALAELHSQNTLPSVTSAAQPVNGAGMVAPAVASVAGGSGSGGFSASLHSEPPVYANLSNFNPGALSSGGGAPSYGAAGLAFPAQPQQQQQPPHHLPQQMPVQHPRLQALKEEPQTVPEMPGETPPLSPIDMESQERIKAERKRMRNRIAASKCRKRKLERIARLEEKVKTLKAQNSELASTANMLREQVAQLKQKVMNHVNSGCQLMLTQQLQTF
UniProt P42858, whole entry: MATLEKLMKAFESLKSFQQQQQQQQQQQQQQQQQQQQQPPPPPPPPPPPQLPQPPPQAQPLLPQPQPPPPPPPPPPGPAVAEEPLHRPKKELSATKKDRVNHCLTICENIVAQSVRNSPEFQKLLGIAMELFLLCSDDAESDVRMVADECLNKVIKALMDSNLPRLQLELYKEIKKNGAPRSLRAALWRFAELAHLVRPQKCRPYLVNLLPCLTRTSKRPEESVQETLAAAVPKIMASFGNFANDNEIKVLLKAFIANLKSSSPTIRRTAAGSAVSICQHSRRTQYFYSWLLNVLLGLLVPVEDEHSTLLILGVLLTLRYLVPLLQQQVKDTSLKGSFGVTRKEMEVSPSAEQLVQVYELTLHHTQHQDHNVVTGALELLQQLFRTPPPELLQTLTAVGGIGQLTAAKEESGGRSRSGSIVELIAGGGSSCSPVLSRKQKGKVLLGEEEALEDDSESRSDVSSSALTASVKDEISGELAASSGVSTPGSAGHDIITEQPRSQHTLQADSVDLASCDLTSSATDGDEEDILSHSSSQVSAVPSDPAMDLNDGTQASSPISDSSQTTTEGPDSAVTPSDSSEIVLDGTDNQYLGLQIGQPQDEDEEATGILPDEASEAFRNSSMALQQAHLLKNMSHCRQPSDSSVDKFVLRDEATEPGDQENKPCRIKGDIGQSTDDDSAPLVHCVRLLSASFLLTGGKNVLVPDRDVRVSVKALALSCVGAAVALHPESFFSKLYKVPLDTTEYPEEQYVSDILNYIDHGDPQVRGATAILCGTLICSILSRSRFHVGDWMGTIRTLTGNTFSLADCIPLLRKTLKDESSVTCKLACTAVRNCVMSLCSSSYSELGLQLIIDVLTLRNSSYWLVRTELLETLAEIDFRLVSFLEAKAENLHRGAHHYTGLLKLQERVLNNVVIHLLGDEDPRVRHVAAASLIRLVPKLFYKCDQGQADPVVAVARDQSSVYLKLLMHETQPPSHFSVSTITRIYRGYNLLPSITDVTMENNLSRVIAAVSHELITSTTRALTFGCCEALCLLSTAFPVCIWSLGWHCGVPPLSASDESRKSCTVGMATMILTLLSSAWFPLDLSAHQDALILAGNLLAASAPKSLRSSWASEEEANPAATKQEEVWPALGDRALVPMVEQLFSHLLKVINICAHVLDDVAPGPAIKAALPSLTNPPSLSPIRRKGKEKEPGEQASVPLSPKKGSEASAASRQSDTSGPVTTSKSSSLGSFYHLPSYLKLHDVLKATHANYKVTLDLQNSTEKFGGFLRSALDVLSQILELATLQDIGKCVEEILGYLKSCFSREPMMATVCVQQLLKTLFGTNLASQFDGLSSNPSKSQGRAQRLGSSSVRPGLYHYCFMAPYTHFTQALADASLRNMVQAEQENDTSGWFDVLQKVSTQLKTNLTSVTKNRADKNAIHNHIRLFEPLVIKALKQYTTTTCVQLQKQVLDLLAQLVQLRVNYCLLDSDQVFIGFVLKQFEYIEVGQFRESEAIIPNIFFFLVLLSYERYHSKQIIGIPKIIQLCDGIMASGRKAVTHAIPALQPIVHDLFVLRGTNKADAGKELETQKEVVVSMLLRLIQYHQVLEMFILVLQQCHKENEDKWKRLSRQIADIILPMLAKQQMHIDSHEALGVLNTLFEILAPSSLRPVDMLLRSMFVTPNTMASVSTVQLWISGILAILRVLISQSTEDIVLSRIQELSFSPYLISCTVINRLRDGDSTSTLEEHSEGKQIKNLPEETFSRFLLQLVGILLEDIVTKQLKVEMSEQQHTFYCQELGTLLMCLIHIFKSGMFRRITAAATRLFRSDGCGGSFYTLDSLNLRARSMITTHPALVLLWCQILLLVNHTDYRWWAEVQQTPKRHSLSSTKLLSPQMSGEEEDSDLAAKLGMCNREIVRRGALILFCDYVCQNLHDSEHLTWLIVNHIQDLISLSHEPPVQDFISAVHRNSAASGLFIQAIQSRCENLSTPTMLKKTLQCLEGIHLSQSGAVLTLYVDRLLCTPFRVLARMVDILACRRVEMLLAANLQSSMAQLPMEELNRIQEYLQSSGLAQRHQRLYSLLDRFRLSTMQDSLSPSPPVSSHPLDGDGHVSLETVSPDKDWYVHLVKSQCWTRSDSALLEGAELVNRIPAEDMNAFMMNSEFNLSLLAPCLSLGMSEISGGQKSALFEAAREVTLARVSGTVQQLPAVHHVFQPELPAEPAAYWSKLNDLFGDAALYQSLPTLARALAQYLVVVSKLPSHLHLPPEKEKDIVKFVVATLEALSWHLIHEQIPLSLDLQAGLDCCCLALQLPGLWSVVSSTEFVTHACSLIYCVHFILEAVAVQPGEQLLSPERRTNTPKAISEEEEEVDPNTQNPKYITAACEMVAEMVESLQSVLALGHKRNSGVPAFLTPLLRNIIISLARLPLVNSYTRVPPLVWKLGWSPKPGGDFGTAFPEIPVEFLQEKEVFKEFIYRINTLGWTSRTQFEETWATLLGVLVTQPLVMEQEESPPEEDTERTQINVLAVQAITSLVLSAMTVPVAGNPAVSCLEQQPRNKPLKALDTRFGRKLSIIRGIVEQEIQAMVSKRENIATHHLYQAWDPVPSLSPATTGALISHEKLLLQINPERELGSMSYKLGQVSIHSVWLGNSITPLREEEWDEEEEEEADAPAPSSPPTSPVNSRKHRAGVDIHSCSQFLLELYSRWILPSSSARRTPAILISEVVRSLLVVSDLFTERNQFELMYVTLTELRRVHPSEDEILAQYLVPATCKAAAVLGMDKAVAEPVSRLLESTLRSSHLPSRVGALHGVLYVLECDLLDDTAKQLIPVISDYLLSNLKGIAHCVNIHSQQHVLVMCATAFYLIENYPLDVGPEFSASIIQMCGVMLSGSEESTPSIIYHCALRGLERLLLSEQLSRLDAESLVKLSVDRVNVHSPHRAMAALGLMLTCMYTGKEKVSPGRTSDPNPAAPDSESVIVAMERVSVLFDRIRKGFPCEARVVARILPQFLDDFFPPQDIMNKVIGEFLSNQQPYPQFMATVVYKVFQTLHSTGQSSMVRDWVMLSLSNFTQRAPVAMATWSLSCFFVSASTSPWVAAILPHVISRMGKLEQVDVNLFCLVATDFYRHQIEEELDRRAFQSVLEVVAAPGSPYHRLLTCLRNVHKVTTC
UniProt P78504, whole entry: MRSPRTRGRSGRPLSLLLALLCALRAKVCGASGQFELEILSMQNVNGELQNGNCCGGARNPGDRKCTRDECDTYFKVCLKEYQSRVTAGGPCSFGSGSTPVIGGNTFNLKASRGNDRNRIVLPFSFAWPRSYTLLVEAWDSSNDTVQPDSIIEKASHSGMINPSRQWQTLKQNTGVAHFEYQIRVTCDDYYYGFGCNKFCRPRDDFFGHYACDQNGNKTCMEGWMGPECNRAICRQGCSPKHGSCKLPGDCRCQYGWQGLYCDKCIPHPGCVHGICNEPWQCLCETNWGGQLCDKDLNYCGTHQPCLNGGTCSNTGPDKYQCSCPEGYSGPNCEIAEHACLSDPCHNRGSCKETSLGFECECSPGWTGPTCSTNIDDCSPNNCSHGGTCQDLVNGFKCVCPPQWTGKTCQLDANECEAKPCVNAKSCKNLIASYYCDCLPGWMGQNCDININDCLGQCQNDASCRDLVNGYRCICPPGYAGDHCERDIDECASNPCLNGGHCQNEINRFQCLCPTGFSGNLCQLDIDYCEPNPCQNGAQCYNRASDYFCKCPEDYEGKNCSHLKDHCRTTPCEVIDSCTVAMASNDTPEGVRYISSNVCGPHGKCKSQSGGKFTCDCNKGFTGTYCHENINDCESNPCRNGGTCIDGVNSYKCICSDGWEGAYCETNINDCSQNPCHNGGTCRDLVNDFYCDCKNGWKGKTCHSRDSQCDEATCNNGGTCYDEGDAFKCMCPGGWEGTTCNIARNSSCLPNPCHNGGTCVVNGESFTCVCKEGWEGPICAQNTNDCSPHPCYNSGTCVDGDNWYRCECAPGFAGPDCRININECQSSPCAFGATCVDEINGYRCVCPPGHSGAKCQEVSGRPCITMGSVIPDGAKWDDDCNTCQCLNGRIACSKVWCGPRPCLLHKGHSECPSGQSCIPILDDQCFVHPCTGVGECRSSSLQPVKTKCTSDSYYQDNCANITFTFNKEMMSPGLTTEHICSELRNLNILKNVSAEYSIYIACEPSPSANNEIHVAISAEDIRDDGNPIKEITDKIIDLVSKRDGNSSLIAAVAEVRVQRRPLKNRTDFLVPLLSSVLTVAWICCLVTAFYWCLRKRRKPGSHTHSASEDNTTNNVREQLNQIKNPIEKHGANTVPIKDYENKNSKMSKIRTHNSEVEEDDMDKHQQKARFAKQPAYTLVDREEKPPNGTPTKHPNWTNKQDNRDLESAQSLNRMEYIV

compound: COc1ccc(Cn2ccc3ccc(C(=O)NO)cc32)cc1; experiment: dose-dependent thermal stabilisation call (2D-TPP, DLPTP, 10% FDR) (binary (1 = stabilised)); higher = stabilised by the compound; conditions: system: HL-60 intact cells; concentration range 0.04-10 µM

Target	dose-dependent thermal stabilisation call
HMMR (UniProt O75330)	inactive: 0
HSH2D (UniProt Q96JZ2)	inactive: 0
JUND (UniProt P17535)	inactive: 0
HSPB1 (UniProt P04792)	inactive: 0
JUN (UniProt P05412)	inactive: 0
IQCB1 (UniProt Q15051)	inactive: 0
HTT (UniProt P42858)	inactive: 0
JAG1 (UniProt P78504)	inactive: 0
ITGA5 (UniProt P08648)	inactive: 0
HSPA13 (UniProt P48723)	inactive: 0

Some of the entries so far, as comma-separated lines:
Target,dose-dependent thermal stabilisation call
JUN (UniProt P05412),inactive: 0
ITGA5 (UniProt P08648),inactive: 0
